The list does not hold the whole screen: it gathers tests that were run many times, whatever their T/C, doses with no T/C, and many T/C values between a quarter and a half above the control. Further doses and runs are listed elsewhere. T/C gives the treated animals as a percentage of the vehicle group. Schedules are NCI's codes, read here as Q, the interval in days (D) or hours (H), X, the number of doses. Some T/C values are followed by the survivors on the day toxicity was checked, most often the fifth; where none is given, no animal had died by that day. Some entries hold several experiments; the values are given in rising order. Some doses have a count of surviving animals in place of a T/C: the source files T/C as zero there, which appears to mark a toxic dose or a test without result, not a measured value. Survivors were counted at the toxicity check, usually on the fifth day, unless a day is given; later deaths do not show. *1 amine or outer side, *2 acyl side, *3 side chain or, on linkers, in order; H or OH if unused. Where a SMILES comes first, the peptide text is derived from it. Bridges are numbered along the chain shown (N, C = ends). Roman numbers before positions name the chains, in order. [ ]: non-standard residue; d: D form. Actinocin(1to9) = Cc1c2oc3c(C)ccc(C(=O)[*:2])c3nc-2c(C(=O)[*:1])c(N)c1=O; NMeV = CN[CH](C(=O)O)C(C)C; Aze = O=C(O)[CH]1CCN1; Sar = CNCC(=O)O

The experiment concerns BDF1 mice, colon carcinoma 38 sc, T/C %. The experiment can be described thus: NCI In Vivo Anticancer Drug Screen. Data for tumor model Colon Carcinoma 38 (subcutaneous) in B6D2F1 (BDF1) mice. The note with it: T/C endpoint: median tumor weight (est.), higher T/C = larger tumour; for T/C: evaluated on day 20. In outline:
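Mice with transplanted tumors are treated with compound or vehicle. Survival or tumor size is then measured in both groups. The ratio of treated to control gives the reported figure.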

[1] abbreviates: dose: 4.0 mg/kg/injection, schedule: Q07DX002 (ip), vehicle: saline.
[2] abbreviates: dose: 20.0 mg/kg/injection, schedule: Q07DX002 (ip), vehicle: saline with Tween-80.
[3] abbreviates: dose: 40.0 mg/kg/injection, schedule: Q07DX002 (ip), vehicle: saline with Tween-80.

With `Nc1ncn(C2OC(CO)C(O)C2O)c(=O)n1` (stereo not given), the T/C by setting is: (dose: 1.0 mg/kg/injection, schedule: Q07DX003 (ip), vehicle: saline) 38, 68, 75, 90 [9 of 10 alive], 96, 120, 159 % of control [9 of 10 alive]; (dose: 2.0 mg/kg/injection, schedule: Q07DX002 (ip), vehicle: saline) 96, 97, 101, 105 % of control; (dose: 2.0 mg/kg/injection, schedule: Q07DX003 (ip), vehicle: saline) 50, 67, 81, 82, 84, 99, 251 % of control; under setting [1], 64, 74, 75, 121, 131 % of control; (dose: 4.0 mg/kg/injection, schedule: Q07DX003 (ip), vehicle: saline) 37, 50, 52, 55, 67, 70, 111 % of control; (dose: 8.0 mg/kg/injection, schedule: Q07DX002 (ip), vehicle: saline) 52, 57, 72 [9 of 10 alive], 86, 97 % of control. For the same molecule, the T/C (dose: 8.0 mg/kg/injection, schedule: Q07DX003 (ip), vehicle: saline) is 23 [8 of 10 alive], 34, 41, 43, 46 [9 of 10 alive], 57, 106 % of control; the T/C (dose: 16.0 mg/kg/injection, schedule: Q07DX002 (ip), vehicle: saline) was 27 [9 of 10 alive], 35, 40, 62, 75 % of control; the T/C (dose: 16.0 mg/kg/injection, schedule: Q07DX003 (ip), vehicle: saline) is 19, 22, 24, 34, 37, 44 % of control.

On to `O=C(CN1CCOCC1)Nc1nc(-c2ccc(Cl)cc2)cs1`, for which the survivor count (dose: 800.0 mg/kg/injection, schedule: Q07DX002 (ip), vehicle: DMSO) is reported as 1 of 10 on day 20.

Turning to `OCCCN1CCCCC1CO` (stereo not given), the survivor count by setting is: (dose: 1600.0 mg/kg/injection, schedule: Q07DX002 (ip), vehicle: saline) 0 of 10 on day 20; (dose: 3200.0 mg/kg/injection, schedule: Q07DX002 (ip), vehicle: saline) 0 of 10 on day 20.

On to `C=C1C(=O)C23C(O)CC4C5(C)CCCC4(C(O)OC5)C2C(OC(C)=O)CC1C3O` (stereo not given), for which the survivor count by setting is: (dose: 128.0 mg/kg/injection, schedule: Q07DX002 (ip), vehicle: saline) 6 of 10 on day 20; (dose: 256.0 mg/kg/injection, schedule: Q07DX002 (ip), vehicle: Klucel (hydroxypropylcellulose) (HPC)) 0 of 10 on day 20; (dose: 256.0 mg/kg/injection, schedule: Q07DX002 (ip), vehicle: saline) 0 of 10 on day 20.

On to `OCC1OC(n2cnc3c2NC=NC[C@H]3O)CC1O` (stereo not given in full), for which the T/C under setting [1] was 130 % of control [9 of 10 alive on day 20]. The survivor count runs as follows: (dose: 32.0 mg/kg/injection, schedule: Q07DX002 (ip), vehicle: saline) 4 of 10 on day 20; (dose: 64.0 mg/kg/injection, schedule: Q07DX002 (ip), vehicle: saline) 1 of 10 on day 20.

As for `C/C=C\C1OC1(C)c1cc(=O)c2c(C)cc3c(c2o1)C(=O)c1c(O)c(C2CC(C)(N(C)C)C(OC(C)=O)C(C)O2)cc(C2CC(N(C)C)C(O)C(C)O2)c1C3=O` (stereo not given), the T/C (dose: 1.5 mg/kg/injection, schedule: Q07DX002 (ip), vehicle: saline + alcohol) is 131 % of control.

As for `CN(C)c1ccc(C(=C2C=CC(=[N+](C)C)C=C2)c2ccc(N(C)C)cc2)cc1` (tested in a mixture with another compound), where the note is “dose: 2.5 mg/kg/injection, schedule: Q07DX002 (ip), vehicle: saline with Tween-80”, the T/C is 135 % of control. Further, the survivor count is, setting by setting: (dose: 10.0 mg/kg/injection, schedule: Q07DX002 (ip), vehicle: saline with Tween-80) 0 of 10 on day 20; under setting [2], 0 of 10 on day 20; under setting [3], 0 of 10 on day 20.

Turning to `Nc1n[n+](-c2ccc(Cl)cc2)no1`, the T/C (dose: 25.0 mg/kg/injection, schedule: Q07DX002 (ip), vehicle: water) is 126 % of control and the T/C (dose: 50.0 mg/kg/injection, schedule: Q07DX002 (ip), vehicle: water) is 125 % of control. Moreover, the survivor count (dose: 100.0 mg/kg/injection, schedule: Q07DX002 (ip), vehicle: water) is given as 0 of 10 on day 20 and the survivor count (dose: 200.0 mg/kg/injection, schedule: Q07DX002 (ip), vehicle: water) is given as 0 of 10 on day 20.

For the molecule `CC(=O)NC(Cc1ccc(F)cc1)C(=O)O` (stereo not given), the T/C (dose: 50.0 mg/kg/injection, schedule: Q07DX002 (ip), vehicle: saline with Tween-80) is 131 % of control. For the same molecule, where the note is “dose: 1600.0 mg/kg/injection, schedule: Q07DX002 (ip), vehicle: saline with Tween-80”, the survivor count is 4 of 10 on day 20.

Turning to `O=C1OC(C(O)CO)C(O)=C1O` (stereo not given), the T/C runs as follows: (dose: 50.0 mg/kg/injection, schedule: Q07DX002 (ip), vehicle: saline) 146 % of control [8 of 10 alive on day 20]; (dose: 100.0 mg/kg/injection, schedule: Q07DX002 (ip), vehicle: saline) 144 % of control [8 of 10 alive on day 20]; (dose: 800.0 mg/kg/injection, schedule: Q07DX002 (ip), vehicle: saline) 142 % of control [8 of 10 alive on day 20].

As for `Cc1c2oc3c(C)ccc(C(=O)NC4C(=O)NC(C(C)C)C(=O)N5CCCC5C(=O)N(C)CC(=O)N(C)C(C(C)C)C(=O)OC4C)c3nc-2c(C(=O)NC2C(=O)NC(C(C)C)C(=O)N3CCC3C(=O)N(C)CC(=O)N(C)C(C(C)C)C(=O)OC2C)c(N)c1=O` (stereo not given) (I: TV[Aze][Sar][NMeV] / II: TVP[Sar][NMeV]; ester I:1-I:C, II:1-II:C; linker I:N-II:N via Actinocin(1to9); configuration not given here), the T/C (dose: 100.0 micrograms/kg/injection, schedule: Q07DX002 (ip), vehicle: saline) is 136 % of control [9 of 10 alive on day 20]. Also, the survivor count (dose: 1600.0 micrograms/kg/injection, schedule: Q07DX002 (ip), vehicle: saline) is 0 of 10 on day 20.

As for `O=C(O)Cc1cccc2c(=O)c(-c3ccccc3)c(-c3ccccc3)oc12`, for the setting “dose: 400.0 mg/kg/injection, schedule: Q07DX002 (ip), vehicle: Klucel (hydroxypropylcellulose) (HPC)”, the survivor count is 3 of 10 on day 20 and 6 of 10 on day 20.

With `CCCCCCCCCCCCCCCC(=O)O[C@@]12C[C@@H](C)[C@@]3(O)[C@@H](C=C(CO)C[C@]4(O)C(=O)C(C)=C[C@@H]34)[C@@H]1C2(C)C`, where the note is “dose: 0.12 mg/kg/injection, schedule: Q07DX002 (ip), vehicle: saline”, the T/C is 128 % of control [9 of 10 alive].

As for `CC[N](CC)[Ge]([CH2]C)[CH2]C.CC[N](CC)[Ge]([CH2]C)[CH2]C`, the survivor count (dose: 200.0 mg/kg/injection, schedule: Q07DX002 (ip), vehicle: saline) is 0 of 10 on day 20.

`Cc1ccc(Cl)c2ccccc12`: the T/C (dose: 25.0 mg/kg/injection, schedule: Q07DX002 (ip), vehicle: saline with Tween-80) is 128 % of control. Moreover, for the setting “dose: 400.0 mg/kg/injection, schedule: Q07DX002 (ip), vehicle: saline with Tween-80”, the survivor count is listed as 1 of 10 on day 20.

Regarding `CCOC(=O)Nc1cc2c(c(N)n1)N=C(c1ccccc1)CN2`, the survivor count is, setting by setting: under setting [2], 4 of 10 on day 20; under setting [3], 0 of 10 on day 20.

For the molecule `CCC(C(=O)O)C(=O)O.[NH2-].[NH2-].[Pt+2]`, the survivor count (dose: 400.0 mg/kg/injection, schedule: Q07DX002 (ip), vehicle: saline) is 1 of 10 on day 20.

For `Cc1c2ccccc2cc2cccc[n+]12`, for the setting “dose: 20.0 mg/kg/injection, schedule: Q07DX002 (ip), vehicle: saline”, the T/C is 136 % of control. Moreover, the survivor count reads like this: (dose: 80.0 mg/kg/injection, schedule: Q07DX002 (ip), vehicle: saline) 0 of 10 on day 20; (dose: 160.0 mg/kg/injection, schedule: Q07DX002 (ip), vehicle: saline) 0 of 10 on day 20.

(Values after PubChem BioAssay AID212 (DTP/NCI, 2004).)
